Measurements as given in the supplement of paper PMC10849652.
This is one part of the list.

Amino acid sequences for entries named in this document (tags omitted). A change or cut given only in a name is not applied to a line headed by its entry.
UniProt Q6YN16: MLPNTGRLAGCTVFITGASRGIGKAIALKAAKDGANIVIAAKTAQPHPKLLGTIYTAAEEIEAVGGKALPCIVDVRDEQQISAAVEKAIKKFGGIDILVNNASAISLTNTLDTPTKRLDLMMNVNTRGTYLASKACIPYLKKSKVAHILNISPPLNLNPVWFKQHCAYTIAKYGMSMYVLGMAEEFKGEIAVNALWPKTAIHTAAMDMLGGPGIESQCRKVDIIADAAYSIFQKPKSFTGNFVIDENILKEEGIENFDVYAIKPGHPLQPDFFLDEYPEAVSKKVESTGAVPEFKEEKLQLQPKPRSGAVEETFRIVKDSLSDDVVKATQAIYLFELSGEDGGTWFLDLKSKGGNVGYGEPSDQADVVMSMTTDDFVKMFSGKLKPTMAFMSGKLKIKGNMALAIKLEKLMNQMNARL
UniProt P19367: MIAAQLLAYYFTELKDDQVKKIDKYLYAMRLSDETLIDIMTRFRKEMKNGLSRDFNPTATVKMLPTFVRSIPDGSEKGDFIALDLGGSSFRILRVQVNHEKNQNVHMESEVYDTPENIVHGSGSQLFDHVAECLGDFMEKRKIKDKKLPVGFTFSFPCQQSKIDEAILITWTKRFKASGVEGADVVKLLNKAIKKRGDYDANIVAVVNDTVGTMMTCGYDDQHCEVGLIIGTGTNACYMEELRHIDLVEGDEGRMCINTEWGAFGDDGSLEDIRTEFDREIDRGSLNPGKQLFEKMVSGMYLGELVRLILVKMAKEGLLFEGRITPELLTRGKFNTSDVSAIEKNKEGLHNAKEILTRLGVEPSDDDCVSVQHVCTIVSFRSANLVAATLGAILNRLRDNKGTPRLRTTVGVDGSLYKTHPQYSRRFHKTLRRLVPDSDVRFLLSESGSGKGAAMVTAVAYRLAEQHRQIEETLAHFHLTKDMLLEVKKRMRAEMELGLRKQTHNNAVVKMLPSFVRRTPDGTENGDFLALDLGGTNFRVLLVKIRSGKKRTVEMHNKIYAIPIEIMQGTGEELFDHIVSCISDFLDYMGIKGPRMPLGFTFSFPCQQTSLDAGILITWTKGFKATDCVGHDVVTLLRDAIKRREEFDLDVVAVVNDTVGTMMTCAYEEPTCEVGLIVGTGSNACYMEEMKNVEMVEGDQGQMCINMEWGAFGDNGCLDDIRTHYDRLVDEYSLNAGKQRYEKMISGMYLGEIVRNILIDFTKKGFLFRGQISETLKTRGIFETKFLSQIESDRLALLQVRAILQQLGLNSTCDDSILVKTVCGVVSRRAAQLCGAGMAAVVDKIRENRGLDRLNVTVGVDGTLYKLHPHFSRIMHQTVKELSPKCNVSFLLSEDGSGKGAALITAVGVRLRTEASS
UniProt P52272: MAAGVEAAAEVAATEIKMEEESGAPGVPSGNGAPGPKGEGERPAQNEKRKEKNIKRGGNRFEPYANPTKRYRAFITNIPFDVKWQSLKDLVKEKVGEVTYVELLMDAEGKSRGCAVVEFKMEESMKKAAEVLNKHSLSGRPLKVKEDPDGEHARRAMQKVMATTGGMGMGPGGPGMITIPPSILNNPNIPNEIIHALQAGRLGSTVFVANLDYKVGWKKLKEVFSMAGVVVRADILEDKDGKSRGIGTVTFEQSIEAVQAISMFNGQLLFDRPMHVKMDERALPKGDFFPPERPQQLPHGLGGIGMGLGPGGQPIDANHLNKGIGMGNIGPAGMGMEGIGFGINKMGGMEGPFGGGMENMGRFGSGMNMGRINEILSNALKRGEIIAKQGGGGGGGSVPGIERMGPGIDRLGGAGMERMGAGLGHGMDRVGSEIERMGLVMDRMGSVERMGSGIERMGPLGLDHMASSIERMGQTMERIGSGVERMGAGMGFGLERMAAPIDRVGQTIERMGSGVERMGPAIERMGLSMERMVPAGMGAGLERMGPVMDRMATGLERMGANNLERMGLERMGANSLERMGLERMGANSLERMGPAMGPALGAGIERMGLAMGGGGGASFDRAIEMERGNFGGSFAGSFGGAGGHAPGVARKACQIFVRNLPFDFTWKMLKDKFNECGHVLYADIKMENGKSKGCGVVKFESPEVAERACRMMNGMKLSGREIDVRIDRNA
UniProt Q9NQG7: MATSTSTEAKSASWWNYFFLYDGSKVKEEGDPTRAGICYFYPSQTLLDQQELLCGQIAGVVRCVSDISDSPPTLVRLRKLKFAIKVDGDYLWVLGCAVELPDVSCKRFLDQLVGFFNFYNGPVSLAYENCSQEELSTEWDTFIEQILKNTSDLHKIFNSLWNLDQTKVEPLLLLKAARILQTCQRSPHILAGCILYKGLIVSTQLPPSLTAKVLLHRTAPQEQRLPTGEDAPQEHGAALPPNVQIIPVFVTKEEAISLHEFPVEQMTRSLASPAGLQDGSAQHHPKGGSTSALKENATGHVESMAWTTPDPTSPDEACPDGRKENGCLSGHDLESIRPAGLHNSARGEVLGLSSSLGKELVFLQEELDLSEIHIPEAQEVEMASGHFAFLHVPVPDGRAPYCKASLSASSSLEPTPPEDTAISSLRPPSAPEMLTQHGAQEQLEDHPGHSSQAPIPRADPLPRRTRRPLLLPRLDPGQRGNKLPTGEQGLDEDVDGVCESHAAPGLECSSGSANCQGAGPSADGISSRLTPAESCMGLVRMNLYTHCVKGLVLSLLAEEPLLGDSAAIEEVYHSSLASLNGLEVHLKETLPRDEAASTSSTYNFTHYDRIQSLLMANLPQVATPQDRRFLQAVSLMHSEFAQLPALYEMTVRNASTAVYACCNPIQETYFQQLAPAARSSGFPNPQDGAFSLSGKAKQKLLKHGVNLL
UniProt Q0VDF9: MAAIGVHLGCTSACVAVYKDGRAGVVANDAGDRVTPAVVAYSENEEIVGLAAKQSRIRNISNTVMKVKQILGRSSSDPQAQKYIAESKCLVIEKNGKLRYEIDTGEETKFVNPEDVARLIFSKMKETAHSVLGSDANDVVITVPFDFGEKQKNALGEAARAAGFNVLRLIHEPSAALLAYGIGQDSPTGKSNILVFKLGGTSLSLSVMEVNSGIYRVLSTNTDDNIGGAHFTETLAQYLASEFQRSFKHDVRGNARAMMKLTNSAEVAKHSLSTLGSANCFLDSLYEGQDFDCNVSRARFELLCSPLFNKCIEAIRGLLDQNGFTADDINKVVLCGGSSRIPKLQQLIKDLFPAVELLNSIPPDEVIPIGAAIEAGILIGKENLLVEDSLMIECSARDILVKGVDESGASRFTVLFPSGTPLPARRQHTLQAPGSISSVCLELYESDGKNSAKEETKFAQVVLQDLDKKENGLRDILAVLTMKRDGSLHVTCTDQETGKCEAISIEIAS
UniProt Q5SSJ5: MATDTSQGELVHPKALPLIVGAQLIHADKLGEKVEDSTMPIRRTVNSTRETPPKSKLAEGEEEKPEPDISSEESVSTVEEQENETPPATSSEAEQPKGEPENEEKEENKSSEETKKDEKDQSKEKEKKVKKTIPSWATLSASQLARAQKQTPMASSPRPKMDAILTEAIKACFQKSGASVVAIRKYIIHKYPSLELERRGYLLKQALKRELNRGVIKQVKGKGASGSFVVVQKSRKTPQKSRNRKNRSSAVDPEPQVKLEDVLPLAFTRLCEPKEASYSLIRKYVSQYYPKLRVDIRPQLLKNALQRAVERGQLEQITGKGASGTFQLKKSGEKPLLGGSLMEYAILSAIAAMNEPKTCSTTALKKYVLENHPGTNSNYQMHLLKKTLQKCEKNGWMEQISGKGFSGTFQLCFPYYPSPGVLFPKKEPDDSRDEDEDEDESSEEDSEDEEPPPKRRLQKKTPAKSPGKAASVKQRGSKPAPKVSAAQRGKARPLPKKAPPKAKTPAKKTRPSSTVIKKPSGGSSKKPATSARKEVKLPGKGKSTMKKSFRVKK
UniProt Q6AI08: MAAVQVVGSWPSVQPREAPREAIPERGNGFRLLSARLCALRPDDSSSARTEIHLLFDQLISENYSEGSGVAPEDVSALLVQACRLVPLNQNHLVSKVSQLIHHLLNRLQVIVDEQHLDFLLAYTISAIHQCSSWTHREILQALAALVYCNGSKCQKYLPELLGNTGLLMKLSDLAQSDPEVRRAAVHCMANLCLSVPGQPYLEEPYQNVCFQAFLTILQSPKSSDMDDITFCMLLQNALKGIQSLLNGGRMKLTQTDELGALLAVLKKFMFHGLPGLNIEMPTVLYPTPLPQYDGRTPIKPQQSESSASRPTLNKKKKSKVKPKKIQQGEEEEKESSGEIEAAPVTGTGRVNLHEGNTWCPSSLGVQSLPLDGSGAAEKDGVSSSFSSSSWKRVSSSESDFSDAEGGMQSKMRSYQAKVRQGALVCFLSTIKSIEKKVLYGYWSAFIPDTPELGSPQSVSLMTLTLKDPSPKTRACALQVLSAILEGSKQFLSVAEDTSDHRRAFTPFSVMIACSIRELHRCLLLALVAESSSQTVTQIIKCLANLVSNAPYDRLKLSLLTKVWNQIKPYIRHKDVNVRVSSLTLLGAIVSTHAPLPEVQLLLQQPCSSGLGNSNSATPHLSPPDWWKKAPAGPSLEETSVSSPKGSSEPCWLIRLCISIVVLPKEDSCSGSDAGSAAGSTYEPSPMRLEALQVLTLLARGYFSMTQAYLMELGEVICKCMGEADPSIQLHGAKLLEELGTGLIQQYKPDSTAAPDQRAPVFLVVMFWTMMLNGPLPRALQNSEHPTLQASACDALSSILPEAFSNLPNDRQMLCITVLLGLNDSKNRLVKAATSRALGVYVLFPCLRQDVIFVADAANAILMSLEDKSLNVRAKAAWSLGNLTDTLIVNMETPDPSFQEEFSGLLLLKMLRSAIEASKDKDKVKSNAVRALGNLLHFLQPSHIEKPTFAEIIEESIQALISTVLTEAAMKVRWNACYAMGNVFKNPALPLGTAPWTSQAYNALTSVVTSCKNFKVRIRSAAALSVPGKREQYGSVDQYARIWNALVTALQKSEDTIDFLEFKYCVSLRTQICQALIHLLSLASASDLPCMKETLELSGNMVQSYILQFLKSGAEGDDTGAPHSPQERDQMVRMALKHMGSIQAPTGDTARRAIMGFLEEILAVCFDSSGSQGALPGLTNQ
UniProt Q96JB3: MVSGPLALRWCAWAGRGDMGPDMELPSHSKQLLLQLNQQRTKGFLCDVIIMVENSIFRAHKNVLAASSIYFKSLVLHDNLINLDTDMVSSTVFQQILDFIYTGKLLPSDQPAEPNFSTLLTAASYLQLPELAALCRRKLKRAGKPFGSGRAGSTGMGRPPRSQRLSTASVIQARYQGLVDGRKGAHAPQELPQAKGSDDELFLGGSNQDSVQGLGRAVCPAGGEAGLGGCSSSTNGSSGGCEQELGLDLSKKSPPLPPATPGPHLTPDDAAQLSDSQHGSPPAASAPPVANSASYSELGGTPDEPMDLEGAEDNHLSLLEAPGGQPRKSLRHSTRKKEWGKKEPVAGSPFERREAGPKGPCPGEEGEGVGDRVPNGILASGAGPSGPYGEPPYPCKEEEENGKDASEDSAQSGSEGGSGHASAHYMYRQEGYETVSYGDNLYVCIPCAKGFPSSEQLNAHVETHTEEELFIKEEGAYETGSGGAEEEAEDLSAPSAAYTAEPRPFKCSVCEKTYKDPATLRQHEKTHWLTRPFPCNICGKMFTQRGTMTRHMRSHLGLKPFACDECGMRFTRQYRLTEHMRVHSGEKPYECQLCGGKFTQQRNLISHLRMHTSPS
UniProt P0DMV8, whole entry, looked up: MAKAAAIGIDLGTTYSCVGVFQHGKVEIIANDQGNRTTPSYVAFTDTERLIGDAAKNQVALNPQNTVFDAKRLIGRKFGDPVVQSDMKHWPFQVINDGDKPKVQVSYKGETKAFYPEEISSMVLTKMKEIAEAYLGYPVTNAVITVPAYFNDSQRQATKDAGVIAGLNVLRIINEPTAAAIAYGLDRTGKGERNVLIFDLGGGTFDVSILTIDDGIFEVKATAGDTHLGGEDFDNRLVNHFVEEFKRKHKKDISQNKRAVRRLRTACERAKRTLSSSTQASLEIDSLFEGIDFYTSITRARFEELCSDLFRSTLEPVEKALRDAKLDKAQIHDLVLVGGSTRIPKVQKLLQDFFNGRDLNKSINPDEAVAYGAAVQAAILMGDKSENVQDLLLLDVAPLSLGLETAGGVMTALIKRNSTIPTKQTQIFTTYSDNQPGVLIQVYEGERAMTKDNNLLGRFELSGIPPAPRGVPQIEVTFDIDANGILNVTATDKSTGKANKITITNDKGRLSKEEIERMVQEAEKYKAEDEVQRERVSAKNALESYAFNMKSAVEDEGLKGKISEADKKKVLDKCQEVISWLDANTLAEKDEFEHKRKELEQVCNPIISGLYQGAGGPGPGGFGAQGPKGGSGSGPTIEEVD
UniProt Q92506: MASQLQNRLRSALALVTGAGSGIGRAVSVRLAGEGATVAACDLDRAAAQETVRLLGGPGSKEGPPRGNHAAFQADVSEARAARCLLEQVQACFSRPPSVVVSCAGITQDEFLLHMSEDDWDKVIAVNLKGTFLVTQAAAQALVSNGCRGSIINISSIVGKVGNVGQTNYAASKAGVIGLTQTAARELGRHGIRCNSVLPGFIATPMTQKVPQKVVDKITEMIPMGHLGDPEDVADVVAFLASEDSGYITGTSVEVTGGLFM

Key:
Assay in all cases: log2 fold change, soluble protein after heating vs DMSO (PISA); higher = thermal stabilisation; K562 lysate, 10 uM; active = over 0.2 and 3.5 SD of the protein, either way, in both replicates (recomputed)
[1] = compound: NCC(=O)Nc1ccc(-n2nc(C(F)(F)F)cc2-c2ccc3c(ccc4ccccc43)c2)cc1
In short: (§1)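 K562 pellets were dounce-homogenised in PBS pH 7.4 with 1 mM MgCl2, and the crude extract at 1 mg/mL protein was treated with 10 μM compound for 30 min. Aliquots were heated for 3 min across 48°C-58°C, pooled, and brought to 0.5% NP-40 at 4°C; soluble protein was the supernatant after 21,000xg for 90 min. Soluble protein was quantified by TMTpro 16plex LC-MS/MS with channel sums equalised, and reported as log2 fold change in thermal stability against DMSO controls, with values from duplicates.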

vorinostat = compound: O=C(CCCCCCC(=O)Nc1ccccc1)NO [vorinostat]
In short: as §1

silmitasertib = compound: O=C(O)c1ccc2c(c1)nc(Nc1cccc(Cl)c1)c1ccncc12 [silmitasertib]
In short: as §1

[2] = compound: O=C1NC(=O)C(c2cnc3ccccn23)=C1c1cn2c3c(cc(F)cc13)CN(C(=O)N1CCCCC1)CC2
In short: as §1

entospletinib = compound: c1cn2cc(-c3ccc4cn[nH]c4c3)nc(Nc3ccc(N4CCOCC4)cc3)c2n1 [entospletinib]
In short: as §1

Measured: log2 fold change

HSDL2 (UniProt Q6YN16)
inactive: [1] -0.004 | vorinostat 0.065 | silmitasertib -0.014 | [2] 0.026 | entospletinib 0.012

HLTF (UniProt Q14527)
active: vorinostat -0.246
inactive: [1] 0.046 | silmitasertib 0.101 | [2] -0.101 | entospletinib 0.017

HNRNPC (UniProt P07910)
inactive: [1] 0.063 | vorinostat 0.124 | silmitasertib 0.025 | [2] 0.01 | entospletinib -0.003

HSD17B10 (UniProt Q99714)
inactive: [1] 0.04 | silmitasertib -0.011 | [2] -0.025 | entospletinib -0.004
active: vorinostat -0.826

HK1 isoform 2 (UniProt P19367)
inactive: [1] 0.012 | silmitasertib 0.028 | [2] -0.002 | entospletinib 0.011
active: vorinostat -0.264

HMMR isoform 3 (UniProt O75330)
inactive: [1] 0.006 | vorinostat -0.143 | silmitasertib 0.011 | [2] -0.007 | entospletinib 0.001

HNRNPDL (UniProt O14979)
inactive: [1] -0.032 | vorinostat 0.133 | silmitasertib -0.01 | [2] 0.01 | entospletinib 0.01

HNRNPM (UniProt P52272)
active: vorinostat -0.235
inactive: [1] -0.008 | silmitasertib 0.022 | [2] -0.05 | entospletinib 0.015

HPS1 (UniProt Q92902)
inactive: [1] -0.054 | vorinostat -0.142 | silmitasertib 0.092 | [2] 0.056 | entospletinib -0.092

HNRNPD isoform 2 (UniProt Q14103)
inactive: [1] 0.018 | vorinostat 0.155 | silmitasertib 0.009 | [2] 0.063 | entospletinib -0.006

HMGN4 (UniProt O00479)
inactive: [1] -0.095 | vorinostat 0.192 | silmitasertib -0.012 | [2] 0.067 | entospletinib 0.163

HECW2 (UniProt Q9P2P5)
inactive: [1] -0.018 | vorinostat -0.058 | silmitasertib 0.011 | [2] -0.004 | entospletinib -0.09

HNRNPR (UniProt O43390)
inactive: [1] -0.079 | vorinostat 0.118 | silmitasertib 0.026 | [2] 0.005 | entospletinib -0.028

HMGCL (UniProt P35914)
inactive: [1] -0.025 | silmitasertib 0.059 | [2] 0.033 | entospletinib 0
active: vorinostat -0.226

HPS4 isoform 4 (UniProt Q9NQG7)
inactive: [1] 0.029 | vorinostat -0.167 | silmitasertib 0.038 | [2] 0.045 | entospletinib 0.039

HIF1AN (UniProt Q9NWT6)
inactive: [1] 0.035 | vorinostat 0.039 | silmitasertib 0.006 | [2] -0.149 | entospletinib -0.001

HSP90AB3P (UniProt Q58FF7)
inactive: [1] 0.011 | vorinostat 0.047 | silmitasertib 0.005 | [2] -0.006 | entospletinib -0.012

HOOK3 (UniProt Q86VS8)
inactive: [1] 0.038 | vorinostat -0.079 | silmitasertib 0.012 | [2] -0.048 | entospletinib 0.025

HPF1 (UniProt Q9NWY4)
inactive: [1] -0.02 | vorinostat -0.145 | silmitasertib 0.019 | [2] 0.019 | entospletinib -0.003

HSPA14 (UniProt Q0VDF9)
active: vorinostat -0.226
inactive: [1] -0.022 | silmitasertib 0.035 | [2] -0.007 | entospletinib -0.009

HNRNPUL2 (UniProt Q1KMD3)
inactive: [1] 0.029 | vorinostat -0.017 | silmitasertib 0.022 | [2] -0.023 | entospletinib -0.032

HECTD1 (UniProt Q9ULT8)
inactive: [1] 0.019 | vorinostat -0.195 | silmitasertib 0.049 | [2] -0.042 | entospletinib -0.051

HELB (UniProt Q8NG08)
inactive: [1] -0.023 | vorinostat -0.103 | silmitasertib 0.036 | [2] 0.005 | entospletinib 0.022

HIST2H2BC (UniProt Q6DN03)
inactive: [1] 0.018 | vorinostat 0.133 | silmitasertib -0.098 | [2] -0.019 | entospletinib -0.062

HS2ST1 (UniProt Q7LGA3)
inactive: [1] -0.066 | vorinostat 0.144 | silmitasertib 0.004 | [2] -0.028 | entospletinib 0.023

HP1BP3 (UniProt Q5SSJ5)
inactive: [1] 0.019 | vorinostat 0.143 | silmitasertib 0.009 | [2] 0 | entospletinib -0.027

HPCAL1 (UniProt P37235)
inactive: [1] -0.033 | vorinostat 0.058 | silmitasertib -0.007 | [2] -0.025 | entospletinib -0.03

HIP1 (UniProt O00291)
inactive: [1] 0.064 | vorinostat -0.004 | silmitasertib 0.003 | [2] -0.036 | entospletinib -0.036

HMG20B (UniProt Q9P0W2)
inactive: [1] 0.122 | vorinostat 0.128 | silmitasertib -0.071 | [2] 0.026 | entospletinib 0.015

HECTD3 (UniProt Q5T447)
active: vorinostat -0.253
inactive: [1] -0.015 | silmitasertib 0.109 | [2] -0.02 | entospletinib 0.022

HEATR6 (UniProt Q6AI08)
active: vorinostat -0.466
inactive: [1] -0.005 | silmitasertib 0.047 | [2] -0.026 | entospletinib 0

HIRA (UniProt P54198)
inactive: [1] 0.07 | vorinostat -0.193 | silmitasertib 0.003 | [2] -0.005 | entospletinib 0.131

HINT1 (UniProt P49773)
inactive: [1] -0.115 | vorinostat 0.077 | silmitasertib 0.019 | [2] -0.041 | entospletinib -0.089

HIC2 (UniProt Q96JB3)
inactive: [1] 0.016 | vorinostat 0.03 | silmitasertib 0.003 | [2] 0.018 | entospletinib -0.019

HMCES (UniProt Q96FZ2)
inactive: [1] -0.016 | vorinostat -0.154 | silmitasertib -0.039 | [2] 0.001 | entospletinib 0.025

HIST2H3A (UniProt Q71DI3)
inactive: [1] -0.007 | vorinostat 0.035 | silmitasertib -0.013 | [2] 0.031 | entospletinib -0.02

HEBP1 (UniProt Q9NRV9)
inactive: [1] -0.051 | vorinostat 0.056 | silmitasertib 0.15 | [2] -0.064 | entospletinib 0.147

HMGA1 (UniProt P17096)
inactive: [1] 0.056 | vorinostat 0.111 | silmitasertib 0.001 | [2] 0.038 | entospletinib -0.011

HOXB9 (UniProt P17482)
inactive: [1] -0.087 | vorinostat -0.251 | silmitasertib -0.136 | [2] -0.261 | entospletinib -0.019

HSP90AA4P (UniProt Q58FG1)
inactive: [1] 0.026 | vorinostat 0.047 | silmitasertib -0.087 | [2] -0.047 | entospletinib 0.017

HSPA1L (UniProt P34931)
inactive: [1] -0.093 | vorinostat 0.055 | silmitasertib 0.05 | [2] -0.016 | entospletinib -0.032

HM13 isoform 2 (UniProt Q8TCT9)
inactive: [1] -0.026 | vorinostat 0.192 | silmitasertib 0 | [2] -0.02 | entospletinib -0.02

HGS (UniProt O14964)
inactive: [1] 0 | vorinostat 0.049 | silmitasertib -0.006 | [2] -0.006 | entospletinib -0.001

HSD17B12 (UniProt Q53GQ0)
inactive: [1] 0.025 | vorinostat -0.009 | silmitasertib -0.05 | [2] -0.078 | entospletinib 0.041

HMGCS1 (UniProt Q01581)
inactive: [1] 0.018 | silmitasertib 0.011 | [2] 0.013 | entospletinib -0.002
active: vorinostat 0.53

HNRNPF (UniProt P52597)
inactive: [1] 0.002 | vorinostat -0.094 | silmitasertib 0.002 | [2] -0.024 | entospletinib 0.004

HIST2H2AA3 (UniProt Q6FI13)
inactive: [1] -0.056 | vorinostat 0.12 | silmitasertib -0.073 | [2] 0.068 | entospletinib -0.106

HNRNPUL1 (UniProt Q9BUJ2)
inactive: [1] -0.02 | vorinostat 0.122 | silmitasertib 0.012 | [2] -0.022 | entospletinib -0.02

HERC1 (UniProt Q15751)
inactive: [1] -0.006 | vorinostat -0.192 | silmitasertib -0.001 | [2] 0.006 | entospletinib -0.004

HEXA (UniProt P06865)
inactive: [1] 0.017 | vorinostat 0.122 | silmitasertib -0.017 | [2] -0.044 | entospletinib 0.011

HSPA1A (UniProt P0DMV8)
inactive: [1] -0.008 | vorinostat 0.108 | silmitasertib -0.014 | [2] -0.001 | entospletinib -0.035

HSD17B4 (UniProt P51659)
inactive: [1] 0.042 | vorinostat 0.15 | silmitasertib -0.025 | [2] -0.038 | entospletinib 0.006

15 neighbouring records from above, for reference:
HIC2 (UniProt Q96JB3)
inactive: [1] 0.016 | vorinostat 0.03 | silmitasertib 0.003 | [2] 0.018 | entospletinib -0.019

HMCES (UniProt Q96FZ2)
inactive: [1] -0.016 | vorinostat -0.154 | silmitasertib -0.039 | [2] 0.001 | entospletinib 0.025

HIST2H3A (UniProt Q71DI3)
inactive: [1] -0.007 | vorinostat 0.035 | silmitasertib -0.013 | [2] 0.031 | entospletinib -0.02

HEBP1 (UniProt Q9NRV9)
inactive: [1] -0.051 | vorinostat 0.056 | silmitasertib 0.15 | [2] -0.064 | entospletinib 0.147

HMGA1 (UniProt P17096)
inactive: [1] 0.056 | vorinostat 0.111 | silmitasertib 0.001 | [2] 0.038 | entospletinib -0.011

HOXB9 (UniProt P17482)
inactive: [1] -0.087 | vorinostat -0.251 | silmitasertib -0.136 | [2] -0.261 | entospletinib -0.019

HSP90AA4P (UniProt Q58FG1)
inactive: [1] 0.026 | vorinostat 0.047 | silmitasertib -0.087 | [2] -0.047 | entospletinib 0.017

HSPA1L (UniProt P34931)
inactive: [1] -0.093 | vorinostat 0.055 | silmitasertib 0.05 | [2] -0.016 | entospletinib -0.032

HM13 isoform 2 (UniProt Q8TCT9)
inactive: [1] -0.026 | vorinostat 0.192 | silmitasertib 0 | [2] -0.02 | entospletinib -0.02

HGS (UniProt O14964)
inactive: [1] 0 | vorinostat 0.049 | silmitasertib -0.006 | [2] -0.006 | entospletinib -0.001

HSD17B12 (UniProt Q53GQ0)
inactive: [1] 0.025 | vorinostat -0.009 | silmitasertib -0.05 | [2] -0.078 | entospletinib 0.041

HMGCS1 (UniProt Q01581)
inactive: [1] 0.018 | silmitasertib 0.011 | [2] 0.013 | entospletinib -0.002
active: vorinostat 0.53

HNRNPF (UniProt P52597)
inactive: [1] 0.002 | vorinostat -0.094 | silmitasertib 0.002 | [2] -0.024 | entospletinib 0.004

HIST2H2AA3 (UniProt Q6FI13)
inactive: [1] -0.056 | vorinostat 0.12 | silmitasertib -0.073 | [2] 0.068 | entospletinib -0.106

HNRNPUL1 (UniProt Q9BUJ2)
inactive: [1] -0.02 | vorinostat 0.122 | silmitasertib 0.012 | [2] -0.022 | entospletinib -0.02

(further entries)

HSD17B8 (UniProt Q92506)
inactive: [1] -0.071 | vorinostat 0.053 | silmitasertib 0.012 | [2] -0.019 | entospletinib -0.027
